From PubChem BioAssay AID445 (National Center for Advancing Translational Sciences (NCATS), 2006)
This is one part of the list. The main result of the screen is listed elsewhere. These columns were measured beside it and carry no call. Most of these compounds were active or inconclusive in the main read-out, so they are no random draw. Words in brackets tell the shape of the fitted curve; partial curves, single points and poor fits give uncertain potencies.

Assay: IkB Signaling
Settings: ABC-DLBCL IkBa-CBG/CBR dual luciferase ratio (green luciferase fused to IkBa over red control in OCI-Ly3 lymphoma cells), 4 h
Outline: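 In this assay, an IκBα–CBG68 fusion accumulates when IKK-driven degradation is blocked; native CBR normalizes for cell number. OCI-Ly3 cells were treated 4 h with compound and doxycycline, then green and red light read after Chroma-Glo addition.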

[1] = measured here: control luc red channel unless noted

Brc1ccccc1Cn1c(-c2cncs2)nc2ccccc21
AC50 [1]: 25.1 µM [falling, single point]

N#Cc1nc(COc2cccc(Cl)c2)oc1NCCc1ccccc1
AC50 [1]: 31.6 µM [falling, single point]

CC(C)c1ccc(NC(=O)CSc2nc(=O)n(Cc3ccccn3)c3c2CCC3)cc1
AC50 [1]: 39.8 µM [falling, single point]

CCOc1ccccc1C(=O)N(Cc1cc(OC)c(OC)c(OC)c1)c1ccccn1
AC50 [1]: 39.8 µM [falling, single point]

Cc1cccc(N2CCN(C(=O)c3ccc(CS(=O)(=O)c4ccccc4C)o3)CC2C)c1 (configuration not stated)
AC50 [1]: 20 µM [falling, partial curve]

Cc1ccc(Nc2sc(C(=O)c3ccccc3)c(N)c2C(=O)Nc2ccc(Cl)cc2)cc1
AC50 [1]: 0.398 µM [falling, partial curve]

COc1ccc(-c2cn3nc(N4CCCC(C(=O)Nc5cccc(OC)c5)C4)sc3n2)cc1 (configuration not stated)
AC50 [1]: 10 µM [falling, partial curve]

CCOCCCNC(=O)c1cc(Sc2cccc(Cl)c2)nc2ccccc12
AC50 [1]: 39.8 µM [falling, single point]

COc1cccc(C(=O)N2c3ccc(C)cc3C(C)(c3ccccc3)CC2(C)C)c1 (configuration not stated)
AC50 [1]: 7.94 µM [falling, partial curve]

Cc1ccccc1C(=O)Nc1sc2c(c1C(=O)N1CCCCC1)CCC(C)C2 (configuration not stated)
AC50 [1]: 25.1 µM [falling, partial curve]

O=C(CCN1C(=O)c2ccccc2Sc2ncccc21)Nc1ccc(F)cc1F
AC50 [1]: 1 µM [rising, full curve]

O=C(NCc1cccnc1)C(=O)NCC(c1cccnc1)N1CCN(c2ccc(F)cc2)CC1 (configuration not stated)
AC50 [1]: 10 µM [falling, partial curve]

CCOC(=O)N1CCN(c2cc(NCCC(=O)O)c3c4c(onc24)-c2ccccc2C3=O)CC1
AC50 [1]: 10 µM [falling, partial curve]

CCCCN1C(=O)c2[nH]nc(-c3ccccc3O)c2C1c1ccc(OCc2ccccc2)cc1 (configuration not stated)
AC50 [1]: 39.8 µM [falling, single point]

O=C(c1ccco1)N(Cc1cc2ccccc2[nH]c1=O)C1CCCCC1
AC50 [1]: 2.51 µM [falling, full curve]

Cc1ccc(S(=O)(=O)N2CCCc3cc(NS(=O)(=O)c4cccc(Cl)c4)ccc32)cc1
AC50 [1]: 31.6 µM [falling, partial curve]

COc1ccccc1NC(=O)CSc1nnc(NC(=O)Nc2ccc(C)cc2)s1
AC50 [1]: 15.8 µM [falling, partial curve]

COc1ccc2cc(CN(Cc3ccco3)Cc3nnnn3C3CCCCC3)c(=O)[nH]c2c1
AC50 [1]: 25.1 µM [falling, partial curve]

Cc1cccc(NC(=O)c2cc3n(n2)C(C(F)(F)F)CC(c2ccc4c(c2)OCO4)N3)c1 (configuration not stated)
AC50 [1]: 10 µM [falling, partial curve]

Nc1sc2c(c1C(=O)NC1CCS(=O)(=O)C1)CCCC2 (configuration not stated)
AC50 [1]: 12.6 µM [falling, partial curve]

Cc1ccc(C(=O)c2c(N)c(C(=O)Nc3ccccc3Cl)c3ccccn23)cc1
AC50 [1]: 25.1 µM [falling, single point]

Cc1ccc(CCNC(=O)c2ccc3c(c2)nc2n3CCCCC2)cc1
AC50 [1]: 15.8 µM [falling, single point]

COc1cccc(NC(=O)c2ccc(CN3CCOCC3)cc2)c1
AC50 [1]: 31.6 µM [falling, partial curve]

Cc1sc2ncn(CC(=O)Nc3cccc(C(F)(F)F)c3)c(=O)c2c1S(=O)(=O)N1CCN(C)CC1
AC50 [1]: 1 µM [falling, partial curve]

CC1=C(C(=O)Nc2ccc(C)cc2C)C(c2ccc([N+](=O)[O-])cc2)n2ncc(C(=O)Nc3ccc(F)cc3)c2N1 (configuration not stated)
AC50 [1]: 10 µM [falling, partial curve]

Cc1ccccc1Cc1c(C)nc2nc(SCC(=O)N(C)c3ccccc3)nn2c1C
AC50 [1]: 31.6 µM [falling, single point]

Cc1c(C(=O)N2CCC(C)CC2)c(S(=O)(=O)NCc2ccc(Cl)cc2)c(C)n1C
AC50 [1]: 3.98 µM [falling, single point]

CN(c1ccc(F)cc1)S(=O)(=O)N1CCCC(C(=O)NCc2cccc(Br)c2)C1 (configuration not stated)
AC50 [1]: 25.1 µM [falling, partial curve]

Cc1ccsc1C(=O)OCC(=O)c1cc(C)n(CC2CCCO2)c1C (configuration not stated)
AC50 [1]: 25.1 µM [falling, single point]

CCN(CC)c1ccc2cc(-c3nc(-c4cccs4)no3)c(=O)oc2c1
AC50 [1]: 0.158 µM [falling, full curve]

COCCCNC(=O)CSc1nc2cc3c(cc2c(=O)n1CCCCCC(=O)NCc1ccc(OC)cc1)OCO3
AC50 [1]: 1.26 µM [rising, full curve]

Cc1ccc(NC(=O)c2cnc(SCC(=O)N3CCOCC3)n(C)c2=O)cc1C
AC50 (measured here: IkB-luc green channel): 39.8 µM [rising, single point] | AC50 (measured here: control luc red channel): 7.94 µM [falling, single point]

CC1CCN(C(=O)c2ccc3c(c2)N(Cc2ccccc2)C(=O)c2ccccc2S3(=O)=O)CC1
AC50 [1]: 39.8 µM [falling, single point]

CCCc1cc(-c2n[nH]c(C)c2-c2ccc(C(=O)OCC)o2)c(O)cc1O
AC50 [1]: 25.1 µM [falling, partial curve]

COc1ccccc1-c1noc(-c2ccc(NCc3ccco3)c([N+](=O)[O-])c2)n1
AC50 [1]: 0.316 µM [rising, full curve]

CCn1c(=O)c(C(=O)Nn2c(C)nc3ccccc3c2=O)c(O)c2ccccc21
AC50 [1]: 25.1 µM [falling, partial curve]

Cc1cccc(N2CCN(C(=O)c3ccc4c(Cl)c5c(nc4c3)CCCC5)CC2C)c1 (configuration not stated)
AC50 [1]: 20 µM [falling, partial curve]

COc1ccc(NC(=O)c2cc3n(n2)C(C(F)(F)F)CC(c2ccc4c(c2)OCO4)N3)cc1OC (configuration not stated)
AC50 [1]: 12.6 µM [falling, partial curve]

CN(C(=O)CSc1nc(C2CCCC2)nc2c1c(=O)n(C)c(=O)n2C)c1ccccc1
AC50 [1]: 20 µM [falling, partial curve]

Cc1cccc(C)c1OC(=O)CSc1nnc(CNC(=O)c2ccccc2)o1
AC50 [1]: 0.316 µM [rising, full curve]

O=C(Cn1ncc2c1-c1ccccc1OC2)N1CCN(Cc2ccc3c(c2)OCO3)CC1
AC50 [1]: 12.6 µM [falling, partial curve]

COc1ccc2c(c1)c(CC(=O)Nc1ccc(C(C)=O)cc1)c(C)n2C(=O)c1ccc(Cl)cc1
AC50 [1]: 3.16 µM [falling, full curve]

COc1ccc(S(=O)(=O)NCCS(=O)(=O)N2CCN(c3ccccc3)CC2)cc1OC
AC50 [1]: 0.0631 µM [falling, full curve, poor fit]

Cc1ccc(NC(=O)c2oc3ccccc3c2NC(=O)c2ccc(F)c(F)c2)cc1
AC50 [1]: 39.8 µM [falling, single point]

CCc1cccc(CC)c1NC(=O)C(Cc1ccccc1)NS(=O)(=O)c1cccc2nsnc12 (configuration not stated)
AC50 [1]: 12.6 µM [falling, partial curve]

Cc1ccc(CNC(=O)CCCCCn2c(=O)c3sccc3n(CC(=O)Nc3ccc(C)c(F)c3)c2=O)cc1
AC50 [1]: 1.26 µM [falling, full curve, poor fit]

COc1cccc(C(=O)NC(=NCCc2c[nH]c3ccc(OC)cc23)Nc2nc(C)cc(C)n2)c1
AC50 [1]: 5.01 µM [falling, full curve]

CCN1C(C(=O)c2ccccc2)=C(OC(=O)COc2ccc(OC)cc2)c2ccccc2S1(=O)=O
AC50 [1]: 20 µM [falling, partial curve]

O=C(Nc1ccc(-c2nc3ccccc3o2)c(O)c1)c1cc(-n2cnnc2)ccc1Cl
AC50 [1]: 10 µM [falling, partial curve]

O=C(NCc1ccccc1Cl)c1cnc(N2CCOCC2)c2ccccc12
AC50 [1]: 39.8 µM [falling, single point]

Cc1ccc2cccc(NC(=O)c3cccc4c(Cl)cccc34)c2n1
AC50 [1]: 31.6 µM [rising, single point]

Cc1ccc(C)c(N2CCN(C(=O)CCNS(=O)(=O)c3ccc4c(c3)CCN4C(=O)C3CC3)CC2)c1
AC50 [1]: 39.8 µM [falling, single point]

COc1ccc(S(=O)(=O)N2CN(Cc3ccco3)c3nc4ccccc4nc32)cc1
AC50 [1]: 3.98 µM [falling, full curve]

COc1ccc(Br)cc1C(=O)Nc1cccc(NC(=O)c2ccco2)c1
AC50 [1]: 5.01 µM [falling, partial curve]

Cc1ccc(C(=O)N2CCc3cc(CNC(=O)c4ccc(Br)cc4)ccc32)cc1
AC50 [1]: 2.51 µM [falling, partial curve]

FC(F)(F)c1cc(-c2ccccc2)nc(NCC2CCCO2)n1 (configuration not stated)
AC50 [1]: 20 µM [falling, partial curve]

COc1ccccc1C(=O)Nc1cccc(-c2cn3ccsc3n2)c1
AC50 [1]: 20 µM [falling, partial curve]

COc1ccc(S(=O)(=O)N2CCN(Cc3ccc4c(c3)OCO4)CC2)cc1C
AC50 [1]: 7.94 µM [falling, partial curve]

CCOC(=O)c1cnc2c(Cl)cc(Cl)cc2c1Nc1cc(C(=O)O)ccc1C
AC50 [1]: 12.6 µM [falling, partial curve]

Cc1c(Cl)cccc1NC(=O)CNS(=O)(=O)c1cccs1
AC50 [1]: 39.8 µM [rising, single point]

CCOc1ccc2c(c1)sc1nc(=O)n(-c3ccc(Cl)c(Cl)c3)c(=O)n12
AC50 [1]: 39.8 µM [rising, single point] [measured here: IkB-luc green channel]
